The whole screen tested about 330,000 compounds, of which about 7,700 (2.3%) were called active. Inconclusive means that the source gave no clear call. Such entries were picked first, then a sample of the others. Calls come from the whole dose curve; as a rule, active = well fitted inhibition curve with a large enough effect; inconclusive = small, poorly fitted or top-dose-only effect, or effect the other way; inactive = flat fitted curve, though single readings scatter. Potencies beside an inconclusive call are fits to weak or partial responses and may not hold up.
Assay: qHTS screen for small molecules that inhibit ELG1-dependent DNA repair in human embryonic kidney (HEK293T) cells expressing luciferase-tagged ELG1; note: nearly all actives have a fitted effect of over 55% in size
Conditions: HEK293T ELG1-luciferase reporter, luminescence, 16 h, DNA damage induced by 5-fluorouridine; series mostly up to 46.1 µM
Summary of the method: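 Reporter activity after DNA damage by 5-fluorouridine is monitored. Compound-treated cells incubate 16 hr at 37 °C, then ONE-Glo is added for 30 min before luminescence reading.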
Potency is the fitted concentration of half-maximal effect.

SMILES | Potency
CCCCn1c(N(CCOC(C)=O)C(C)=O)nc2ccccc21 | inconclusive: 25.9 µM [inhibitor, single point]
O=C(NCCNC1CCN(Cc2ccccc2)CC1)c1cccs1 | inactive
O=C(NC1CCCC1)C(c1ccncc1)N(C(=O)Cn1nnc(-c2ccccc2F)n1)c1cccc(F)c1 (stereo not drawn) | inconclusive: 9.2 µM [activator, partial curve]
CC(=O)Nc1nonc1-c1nc2ccccc2n1C | inconclusive: 6.51 µM [activator, partial curve, poor fit]
CCOc1ccc2oc(-c3ccccc3)c(C(=O)N3CCN(C)CC3)c2c1 | inconclusive: 25.9 µM [inhibitor, single point]
C=CCSc1nnc(-c2cc3c(-c4ccccc4)nn(C)c3s2)n1C | inconclusive: 29.1 µM [inhibitor, single point]
COc1ccc(OCCSc2n[nH]c(N)n2)cc1 | inconclusive: 18.4 µM [activator, single point]
O=C(N/C(=C\c1ccccc1)C(=O)N1CCOCC1)c1cccc(Br)c1 | inconclusive: 16.4 µM [inhibitor, partial curve, poor fit]
COC(=O)c1ccc(COC(=O)c2ccc(C)c(S(=O)(=O)N3CCCCC3)c2)cc1 | inconclusive: 0.73 µM [activator, full curve, poor fit]
CCC(C(=O)Nc1nccs1)(C(F)(F)F)C(F)(F)F | inactive
Cc1ccc(-c2csc(NC(=O)CSc3nc4ccccc4o3)n2)cc1 | inconclusive: 23.1 µM [activator, partial curve]
CCCCN(C(=O)c1ccc([N+](=O)[O-])s1)c1c(N)n(CC(C)C)c(=O)[nH]c1=O | inactive
COc1ccccc1CCC(=O)OCC(=O)Nc1c(C)nn(-c2ccccc2)c1C | inactive
O=C(CSc1nc2ccccc2c(=O)n1-c1ccccc1)N1CCc2ccccc21 | inconclusive: 0.146 µM [inhibitor, partial curve, poor fit]
CSc1ccc(CN2C(=O)NC3(CCCCCC3)C2=O)cc1 | inconclusive: 23.1 µM [inhibitor, single point]
CCSC1=N/C(=C\c2ccccc2)C(=O)N1c1ccc(OC)cc1 | inactive
CN(CCCC[C@H](CNCc1ccc(-c2ccccc2)cc1)N1C[C@H](c2ccccc2)N(CCc2ccc(Cl)c(Cl)c2)C(=O)C1=O)Cc1ccc(-c2ccccc2)cc1 | inconclusive: 29.1 µM [inhibitor, single point]
CC1CCN(C(=O)c2cc(-c3ccc(Cl)c(Cl)c3)on2)CC1 | inconclusive: 23.1 µM [activator, partial curve]

By substructure: the entries above containing two or more sulfur atoms (2)
SMILES | Potency
C=CCSc1nnc(-c2cc3c(-c4ccccc4)nn(C)c3s2)n1C | inconclusive: 29.1 µM [inhibitor, single point]
Cc1ccc(-c2csc(NC(=O)CSc3nc4ccccc4o3)n2)cc1 | inconclusive: 23.1 µM [activator, partial curve]

Source: PubChem BioAssay AID504467 (National Center for Advancing Translational Sciences (NCATS), 2011)
